The values below come from patent publication US20110112032A1, “Regulation of Brain Natriuretic Peptide and Catecholamines for the Treatment of Cardiovascular Diseases” (priority 2005, published 2011).

The series deals with rat myocardial infarct model. The class given is in vivo.
Setting [1] is: N = 6, DPDPE 200 ng/kg iv, labetalol 2 mg/kg iv.

Read-outs that look alike come from different tables or passages of the source.

Under setting [1], `CC(CCc1ccccc1)NCC(O)c1ccc(O)c(C(N)=O)c1` (stereo not shown) [Labetalol, labetalol] registered a Body wt of 286 ± 5.1 g and an LV wt of 801 ± 1 mg.

Under “rat, in vivo”, [D-Pen^25]-enkephalin [DPDPE] gave a Body wt of 287.5 ± 4.1 g and an LV wt of 800 ± 1 mg.
